These results are taken from the supplement of paper PMC4604168 (melanoma cell lines).

Some of the results follow. Single values are uncertain, as repeats are few or missing.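 Imaging used 1,536-well plates; nuclei positive for cleaved PARP by antibody were divided by total DNA-stained nuclei to yield the apoptosis fraction. Doses for screening kept most cells viable, and cell lines differ markedly in resting and induced cleaved-PARP levels.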

The assay deals with IPC-298. The experiment in a line: cleaved PARP positive nuclei fraction relative to DMSO control; melanoma cells; higher = more apoptosis. Particulars: library dose: low library concentration; 72 h.
On to `O=C1NC(=O)/C(=C/c2ccc(-c3ccc(F)cc3O)o2)S1` + COc1cc(N2CCC(N3CCN(C)CC3)CC2)ccc1Nc1ncc(Cl)c(Nc2ccccc2S(=O)(=O)C(C)C)n1 [NVP-TAE684] (first compound 1 µM, partner dose 0.08 µM), for which the “cleaved PARP positive nuclei fraction” value is 112%.

With `O=C(O)c1ccc(-c2c[nH]c3ncc(-c4ccccc4)cc23)cc1C1CCCC1` + O=C(O)C(=O)Nc1sc2c(c1C(=O)O)CCNC2 [TCS401] (first compound 0.16 µM, partner dose 1.66667 µM), the “cleaved PARP positive nuclei fraction” value turned out to be 158%.

For the compound `CN(NC(=O)CC(=O)NN(C)C(=S)c1ccccc1)C(=S)c1ccccc1` + CCN(CC)CCCCNc1ncc2cc(-c3cc(OC)cc(OC)c3)c(NC(=O)NC(C)(C)C)nc2n1 [PD173074] (first compound 0.006 µM, partner dose 0.1 µM), the “cleaved PARP positive nuclei fraction” value stood at 100%.

As to `NCC(=O)Nc1ccc(-n2nc(C(F)(F)F)cc2-c2ccc3c(ccc4ccccc43)c2)cc1` + Cc1cc([N+](=O)[O-])ccc1NS(=O)(=O)c1cc(Cl)ccc1Cl [FH535] (first compound 1 µM, partner dose 1 µM), the “cleaved PARP positive nuclei fraction” value worked out at 51.8%.

For `COc1ccc(COc2ccc(Cc3cnc(N)nc3N)cc2OC)cc1` + O=S(=O)(c1ccccc1)N(CC(F)(F)F)c1ccc(C(O)(C(F)(F)F)C(F)(F)F)cc1 [T0901317] (first compound 1 µM, partner dose 1.4 µM), the “cleaved PARP positive nuclei fraction” value is 29.3%.

In the case of `O=C(Nc1ccccc1)c1cc([N+](=O)[O-])ccc1Cl` + COc1ccc(COc2ccc(Cc3cnc(N)nc3N)cc2OC)cc1 [GW2580] (first compound 2 µM, partner dose 1 µM), the “cleaved PARP positive nuclei fraction” value was found to be 73.7%.

Consider `NCC(=O)Nc1ccc(-n2nc(C(F)(F)F)cc2-c2ccc3c(ccc4ccccc43)c2)cc1` + COc1ccc(-c2ccc3c(N4CCOCC4)nc(N4C[C@@H](C)O[C@@H](C)C4)nc3n2)cc1CO [KU0063794] (first compound 1 µM, partner dose 0.02 µM), for which the “cleaved PARP positive nuclei fraction” value was determined as 105%.

For `COc1cc2c(Oc3ccc4[nH]c(C)cc4c3F)ncnc2cc1OCCCN1CCCC1` [cediranib] + COc1ccc(-c2ccc3c(N4CCOCC4)nc(N4C[C@@H](C)O[C@@H](C)C4)nc3n2)cc1CO [KU0063794] (first compound 0.4 µM, partner dose 0.02 µM), the “cleaved PARP positive nuclei fraction” value worked out at 42.4%.

For `O=S(=O)(c1ccccc1)N(CC(F)(F)F)c1ccc(C(O)(C(F)(F)F)C(F)(F)F)cc1` + CC(C)CCN1c2nc(Nc3cc(F)c(O)c(F)c3)ncc2N(C)C(=O)C1C [BID1870] (first compound 1.4 µM, partner dose 0.2 µM), the “cleaved PARP positive nuclei fraction” value came out at 97.9%.

Consider `NCC(=O)Nc1ccc(-n2nc(C(F)(F)F)cc2-c2ccc3c(ccc4ccccc43)c2)cc1` + COc1cc2ncnc(Nc3ccc(Oc4ccccc4)cc3)c2cc1OC [SrcI1] (first compound 1 µM, partner dose 2 µM), for which the “cleaved PARP positive nuclei fraction” value came to 238%.

For `NCC(=O)Nc1ccc(-n2nc(C(F)(F)F)cc2-c2ccc3c(ccc4ccccc43)c2)cc1` + O=C1NC(=O)/C(=C/c2ccc(-c3ccc(F)cc3O)o2)S1 [AS252424] (first compound 1 µM, partner dose 1 µM), the “cleaved PARP positive nuclei fraction” value came out at 54.5%.

Regarding `COc1cc2ncnc(Nc3ccc(Oc4ccccc4)cc3)c2cc1OC` + c1cc(-c2cnn3cc(-c4ccc(OCCN5CCCCC5)cc4)cnc23)ccn1 [Dorsomorphin] (first compound 2 µM, partner dose 0.4 µM), the “cleaved PARP positive nuclei fraction” value worked out at 174%.

In the case of `CCc1ccc(CCOc2ccc(CC3SC(=O)NC3=O)cc2)nc1` (stereo not given) [pioglitazone] + COC(=O)c1sccc1S(=O)(=O)Nc1ccc(Nc2ccccc2)cc1OC [GSK0660] (first compound 2 µM, partner dose 1 µM), the “cleaved PARP positive nuclei fraction” value amounted to 84.3%.

`O=C(Nc1ccccc1)c1cc([N+](=O)[O-])ccc1Cl` + COc1ccc2c(c1)CCC1C2CCC2(C)C(NCCCCCCN3C(=O)C=CC3=O)CCC12 [U73122] (first compound 2 µM, partner dose 0.4 µM): the “cleaved PARP positive nuclei fraction” value worked out at 82.2%.

For `COc1cc2c(Oc3ccc4[nH]c(C)cc4c3F)ncnc2cc1OCCCN1CCCC1` [cediranib] + O=C1NC(=O)/C(=C/c2ccc(-c3ccc(F)cc3O)o2)S1 [AS252424] (first compound 0.4 µM, partner dose 1 µM), the “cleaved PARP positive nuclei fraction” value was 56.5%.

For `O=C(O)c1ccc(-c2c[nH]c3ncc(-c4ccccc4)cc23)cc1C1CCCC1` + CCc1ccc(CCOc2ccc(CC3SC(=O)NC3=O)cc2)nc1 [pioglitazone] (first compound 0.16 µM, partner dose 2 µM), the “cleaved PARP positive nuclei fraction” value came to 112%.

On to `COc1cc2ncnc(Nc3ccc(Oc4ccccc4)cc3)c2cc1OC` + Oc1cc(-c2nc(-c3ccccc3)[nH]c2-c2ccncc2)ccc1Cl [L779450] (first compound 2 µM, partner dose 0.2 µM), for which the “cleaved PARP positive nuclei fraction” value is 33.7%.

As for `Oc1nc(-c2ccc(C(F)(F)F)cc2)nc2c1CSCC2` + O=c1cc(-c2cccc3c2Sc2ccccc2S3)oc(N2CCOCC2)c1 [KU55933] (first compound 2 µM, partner dose 1 µM), the “cleaved PARP positive nuclei fraction” value is 115%.

In the case of `COc1ccc(-c2ccc3c(N4CCOCC4)nc(N4C[C@@H](C)O[C@@H](C)C4)nc3n2)cc1CO` + O=S(=O)(c1ccccc1)N(CC(F)(F)F)c1ccc(C(O)(C(F)(F)F)C(F)(F)F)cc1 [T0901317] (first compound 0.02 µM, partner dose 1.4 µM), the “cleaved PARP positive nuclei fraction” value is 92.7%.

With `N#Cc1c(O)c2c(-c3ccc(-c4ccccc4O)cc3)csc2[nH]c1=O` + Cn1cc(/C=C2\C(=O)Nc3cccnc32)c2ccccc21 [GW441756] (first compound 2 µM, partner dose 0.4 µM), the “cleaved PARP positive nuclei fraction” value turned out to be 243%.

Regarding `NCC(=O)Nc1ccc(-n2nc(C(F)(F)F)cc2-c2ccc3c(ccc4ccccc43)c2)cc1` + O=C(O)C(=O)Nc1sc2c(c1C(=O)O)CCNC2 [TCS401] (first compound 1 µM, partner dose 1.66667 µM), the “cleaved PARP positive nuclei fraction” value was 101%.

Take `NCC(=O)Nc1ccc(-n2nc(C(F)(F)F)cc2-c2ccc3c(ccc4ccccc43)c2)cc1` + CCc1ccc(CCOc2ccc(CC3SC(=O)NC3=O)cc2)nc1 [pioglitazone] (first compound 1 µM, partner dose 2 µM): the “cleaved PARP positive nuclei fraction” value came out at 168%.

For the compound `O=C(Nc1ccccc1)c1cc([N+](=O)[O-])ccc1Cl` + CC(C)CCN1c2nc(Nc3cc(F)c(O)c(F)c3)ncc2N(C)C(=O)C1C [BID1870] (first compound 2 µM, partner dose 0.2 µM), the “cleaved PARP positive nuclei fraction” value is 138%.

Turning to `O=C(O)c1ccc(-c2c[nH]c3ncc(-c4ccccc4)cc23)cc1C1CCCC1` + Oc1cc(-c2nc(-c3ccccc3)[nH]c2-c2ccncc2)ccc1Cl [L779450] (first compound 0.16 µM, partner dose 0.2 µM), the “cleaved PARP positive nuclei fraction” value is 67.9%.

With `CN(C)S(=O)(=O)c1ccc2c(c1)/C(=C/c1cc3c([nH]1)CCCC3)C(=O)N2` + COc1ccc(COc2ccc(Cc3cnc(N)nc3N)cc2OC)cc1 [GW2580] (first compound 0.4 µM, partner dose 1 µM), the “cleaved PARP positive nuclei fraction” value was found to be 81.6%.

For the compound `COc1ccc(COc2ccc(Cc3cnc(N)nc3N)cc2OC)cc1` + c1cc(-c2cnn3cc(-c4ccc(OCCN5CCCCC5)cc4)cnc23)ccn1 [Dorsomorphin] (first compound 1 µM, partner dose 0.4 µM), the “cleaved PARP positive nuclei fraction” value was 45%.

On to `COc1ccc(-c2ccc3c(N4CCOCC4)nc(N4C[C@@H](C)O[C@@H](C)C4)nc3n2)cc1CO` + Oc1cc(-c2nc(-c3ccccc3)[nH]c2-c2ccncc2)ccc1Cl [L779450] (first compound 0.02 µM, partner dose 0.2 µM), for which the “cleaved PARP positive nuclei fraction” value was 153%.

As for `CCN(CC)CCCCNc1ncc2cc(-c3cc(OC)cc(OC)c3)c(NC(=O)NC(C)(C)C)nc2n1` + Cc1cc([N+](=O)[O-])ccc1NS(=O)(=O)c1cc(Cl)ccc1Cl [FH535] (first compound 0.1 µM, partner dose 1 µM), the “cleaved PARP positive nuclei fraction” value is 117%.

In the case of `O=S(=O)(c1ccccc1)N(CC(F)(F)F)c1ccc(C(O)(C(F)(F)F)C(F)(F)F)cc1` + Cc1cc([N+](=O)[O-])ccc1NS(=O)(=O)c1cc(Cl)ccc1Cl [FH535] (first compound 1.4 µM, partner dose 1 µM), the “cleaved PARP positive nuclei fraction” value worked out at 39.1%.

As to `COc1cc2ncnc(Nc3ccc(Oc4ccccc4)cc3)c2cc1OC` + O=C(O)C(=O)Nc1sc2c(c1C(=O)O)CCNC2 [TCS401] (first compound 2 µM, partner dose 1.66667 µM), the “cleaved PARP positive nuclei fraction” value was found to be 199%.
